Test results: article PMC12990809

Chains of the proteins cited; added tags and fusions are not shown. Lines headed by an entry give the natural chain unless they say otherwise; changes in a name come on top. A line that says so, or that is headed by a name, gives the form on record, which may keep a tag or linker.
UniProt Q9Y6M1: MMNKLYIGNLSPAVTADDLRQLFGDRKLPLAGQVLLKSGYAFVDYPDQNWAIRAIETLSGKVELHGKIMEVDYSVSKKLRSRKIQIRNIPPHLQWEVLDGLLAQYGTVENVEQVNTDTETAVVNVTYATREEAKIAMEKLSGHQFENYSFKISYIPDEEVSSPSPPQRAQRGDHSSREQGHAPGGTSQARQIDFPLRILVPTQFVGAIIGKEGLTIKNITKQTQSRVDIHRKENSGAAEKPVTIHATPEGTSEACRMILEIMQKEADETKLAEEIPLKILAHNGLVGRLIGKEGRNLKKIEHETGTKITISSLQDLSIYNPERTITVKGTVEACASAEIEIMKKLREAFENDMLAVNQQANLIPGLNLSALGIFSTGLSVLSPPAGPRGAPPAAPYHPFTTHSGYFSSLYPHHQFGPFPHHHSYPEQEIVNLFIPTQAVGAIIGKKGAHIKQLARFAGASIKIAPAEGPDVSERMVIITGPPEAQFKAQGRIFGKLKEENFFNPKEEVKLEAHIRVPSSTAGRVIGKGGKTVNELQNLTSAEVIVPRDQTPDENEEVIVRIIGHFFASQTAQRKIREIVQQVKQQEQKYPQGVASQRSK
UniProt Q15366, other isoform, or with tags, fused parts or gaps: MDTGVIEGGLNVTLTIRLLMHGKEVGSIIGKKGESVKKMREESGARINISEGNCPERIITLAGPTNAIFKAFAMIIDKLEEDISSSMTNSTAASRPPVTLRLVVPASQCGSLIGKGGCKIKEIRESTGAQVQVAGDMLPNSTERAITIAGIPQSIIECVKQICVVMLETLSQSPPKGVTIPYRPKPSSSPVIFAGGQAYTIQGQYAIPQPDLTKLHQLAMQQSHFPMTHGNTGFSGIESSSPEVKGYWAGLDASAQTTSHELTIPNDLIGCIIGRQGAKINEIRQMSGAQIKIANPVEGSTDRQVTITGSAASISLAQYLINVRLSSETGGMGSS
UniProt Q9ZPX8: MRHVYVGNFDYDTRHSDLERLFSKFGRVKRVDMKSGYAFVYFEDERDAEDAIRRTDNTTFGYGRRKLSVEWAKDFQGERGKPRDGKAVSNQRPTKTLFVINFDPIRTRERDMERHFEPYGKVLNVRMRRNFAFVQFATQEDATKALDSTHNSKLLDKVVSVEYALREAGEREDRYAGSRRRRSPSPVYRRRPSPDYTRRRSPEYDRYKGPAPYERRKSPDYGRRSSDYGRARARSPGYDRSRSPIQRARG

What was measured:
Test in all cases: pull-down
IGF2BP2 (Homo sapiens) = IGF2BP2 (Homo sapiens) (UniProt Q9Y6M1); settings: 20 nM protein, 1.5 uM RNA pool; 20 mM HEPES pH 7.8, 70 mM KCl, 10 mM NaCl, 10% glycerol, 2 mM DTT, 0.1 ug/uL BSA; 30 min, 4 C; purified recombinant protein; protein details: N-terminal GST (kept); only the motif is given; cited from earlier work
[1] = target: T1, Imp G35C (Drosophila melanogaster) (UniProt Q7K0H6); settings: 20 nM protein, 1.5 uM RNA pool; 20 mM HEPES pH 7.8, 70 mM KCl, 10 mM NaCl, 10% glycerol, 2 mM DTT, 0.1 ug/uL BSA; 30 min, 4 C; purified recombinant protein; residues 29-499; protein details: N-terminal GST (kept); only the motif is given
T1 sequence: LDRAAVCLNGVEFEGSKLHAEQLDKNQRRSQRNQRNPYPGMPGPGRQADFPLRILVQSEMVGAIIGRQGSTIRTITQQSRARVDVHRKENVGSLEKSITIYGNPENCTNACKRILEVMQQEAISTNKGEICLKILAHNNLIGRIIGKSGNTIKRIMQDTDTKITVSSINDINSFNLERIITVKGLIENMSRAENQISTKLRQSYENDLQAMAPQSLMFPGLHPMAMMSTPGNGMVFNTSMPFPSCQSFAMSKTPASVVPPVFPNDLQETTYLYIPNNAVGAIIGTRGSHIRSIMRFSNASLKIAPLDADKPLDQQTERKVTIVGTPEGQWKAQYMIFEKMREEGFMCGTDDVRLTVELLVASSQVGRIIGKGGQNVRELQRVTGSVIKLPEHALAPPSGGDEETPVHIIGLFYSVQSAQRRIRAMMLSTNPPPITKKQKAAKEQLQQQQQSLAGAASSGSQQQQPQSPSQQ

[2] = target: T2, CG4887 (Drosophila melanogaster) (UniProt M9W6K3); settings: 20 nM protein, 1.5 uM RNA pool; 20 mM HEPES pH 7.8, 70 mM KCl, 10 mM NaCl, 10% glycerol, 2 mM DTT, 0.1 ug/uL BSA; 30 min, 4 C; purified recombinant protein; residues 223-517; protein details: N-terminal GST (kept); only the motif is given
T2 sequence: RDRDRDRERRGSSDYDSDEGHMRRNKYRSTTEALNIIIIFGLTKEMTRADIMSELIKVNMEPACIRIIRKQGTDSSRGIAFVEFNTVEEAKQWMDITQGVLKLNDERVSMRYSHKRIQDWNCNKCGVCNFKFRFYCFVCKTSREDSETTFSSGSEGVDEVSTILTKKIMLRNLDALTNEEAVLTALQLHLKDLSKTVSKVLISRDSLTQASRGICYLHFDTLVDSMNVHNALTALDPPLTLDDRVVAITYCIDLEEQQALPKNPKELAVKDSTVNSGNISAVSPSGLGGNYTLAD

[3] = target: T3, PK13173.1 K103R (Cannabis sativa) (UniProt A0A803Q923); settings: 20 nM protein, 1.5 uM RNA pool; 20 mM HEPES pH 7.8, 70 mM KCl, 10 mM NaCl, 10% glycerol, 2 mM DTT, 0.1 ug/uL BSA; 30 min, 4 C; purified recombinant protein; residues 1-123; protein details: N-terminal GST (kept); only the motif is given
T3 sequence: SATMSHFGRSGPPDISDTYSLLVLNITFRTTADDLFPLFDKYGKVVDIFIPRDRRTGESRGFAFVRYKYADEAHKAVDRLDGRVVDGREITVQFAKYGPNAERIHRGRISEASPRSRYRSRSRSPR

MATR3 (Homo sapiens) = target: T4, MATR3 (Homo sapiens) (UniProt P43243); settings: 20 nM protein, 1.5 uM RNA pool; 20 mM HEPES pH 7.8, 70 mM KCl, 10 mM NaCl, 10% glycerol, 2 mM DTT, 0.1 ug/uL BSA; 30 min, 4 C; purified recombinant protein; residues 362-614; protein details: N-terminal GST (kept); only the motif is given; cited from earlier work
T4 sequence: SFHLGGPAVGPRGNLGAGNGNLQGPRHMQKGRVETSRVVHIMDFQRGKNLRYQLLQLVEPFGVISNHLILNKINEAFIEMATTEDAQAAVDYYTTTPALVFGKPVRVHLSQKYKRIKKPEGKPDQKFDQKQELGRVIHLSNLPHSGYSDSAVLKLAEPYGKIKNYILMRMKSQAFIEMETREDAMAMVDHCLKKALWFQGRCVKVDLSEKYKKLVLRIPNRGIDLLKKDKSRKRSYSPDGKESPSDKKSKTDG

[4] = target: T5, heph (Drosophila melanogaster) (UniProt E1JJ41); settings: 20 nM protein, 1.5 uM RNA pool; 20 mM HEPES pH 7.8, 70 mM KCl, 10 mM NaCl, 10% glycerol, 2 mM DTT, 0.1 ug/uL BSA; 30 min, 4 C; purified recombinant protein; residues 358-789; protein details: N-terminal GST (kept); only the motif is given
T5 sequence: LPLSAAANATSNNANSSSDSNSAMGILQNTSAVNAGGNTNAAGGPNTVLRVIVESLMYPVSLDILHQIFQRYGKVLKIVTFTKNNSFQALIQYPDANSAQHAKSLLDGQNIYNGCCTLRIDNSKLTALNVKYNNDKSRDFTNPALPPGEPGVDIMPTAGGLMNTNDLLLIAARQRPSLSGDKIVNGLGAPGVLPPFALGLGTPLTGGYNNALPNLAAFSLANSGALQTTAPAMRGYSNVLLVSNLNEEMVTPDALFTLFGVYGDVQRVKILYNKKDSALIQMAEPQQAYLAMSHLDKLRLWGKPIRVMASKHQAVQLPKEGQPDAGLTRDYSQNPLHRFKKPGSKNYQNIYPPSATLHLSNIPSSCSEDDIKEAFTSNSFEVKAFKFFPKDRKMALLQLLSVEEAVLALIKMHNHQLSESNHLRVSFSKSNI

PCBP2 (Homo sapiens) = PCBP2 (Homo sapiens) (UniProt Q15366); settings: 20 nM protein, 1.5 uM RNA pool; 20 mM HEPES pH 7.8, 70 mM KCl, 10 mM NaCl, 10% glycerol, 2 mM DTT, 0.1 ug/uL BSA; 30 min, 4 C; purified recombinant protein; only the motif is given; cited from earlier work
[5] = target: T6, ANIA_03953 (Aspergillus nidulans) (UniProt Q5B677); settings: 20 nM protein, 1.5 uM RNA pool; 20 mM HEPES pH 7.8, 70 mM KCl, 10 mM NaCl, 10% glycerol, 2 mM DTT, 0.1 ug/uL BSA; 30 min, 4 C; purified recombinant protein; residues 179-349; protein details: N-terminal GST (kept); only the motif is given; cited from earlier work
T6 sequence: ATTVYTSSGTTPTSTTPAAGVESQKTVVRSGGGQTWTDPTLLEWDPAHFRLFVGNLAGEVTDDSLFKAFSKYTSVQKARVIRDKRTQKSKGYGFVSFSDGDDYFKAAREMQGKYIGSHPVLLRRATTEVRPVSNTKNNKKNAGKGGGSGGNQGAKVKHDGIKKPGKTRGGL

[6] = target: T7, RS31A (Arabidopsis thaliana) (UniProt Q9ZPX8); settings: 20 nM protein, 1.5 uM RNA pool; 20 mM HEPES pH 7.8, 70 mM KCl, 10 mM NaCl, 10% glycerol, 2 mM DTT, 0.1 ug/uL BSA; 30 min, 4 C; purified recombinant protein; residues 1-184; protein details: N-terminal GST (kept); only the motif is given
T7 sequence: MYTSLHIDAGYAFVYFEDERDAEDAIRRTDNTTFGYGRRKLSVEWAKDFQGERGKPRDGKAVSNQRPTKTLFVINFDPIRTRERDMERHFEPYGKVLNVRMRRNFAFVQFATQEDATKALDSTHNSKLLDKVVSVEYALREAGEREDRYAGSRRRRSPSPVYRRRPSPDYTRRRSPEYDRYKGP

RBM38 (Homo sapiens) = target: T8, RBM38 (Homo sapiens) (UniProt Q9H0Z9); settings: 20 nM protein, 1.5 uM RNA pool; 20 mM HEPES pH 7.8, 70 mM KCl, 10 mM NaCl, 10% glycerol, 2 mM DTT, 0.1 ug/uL BSA; 30 min, 4 C; purified recombinant protein; residues 24-239; protein details: N-terminal GST (kept); only the motif is given
T8 sequence: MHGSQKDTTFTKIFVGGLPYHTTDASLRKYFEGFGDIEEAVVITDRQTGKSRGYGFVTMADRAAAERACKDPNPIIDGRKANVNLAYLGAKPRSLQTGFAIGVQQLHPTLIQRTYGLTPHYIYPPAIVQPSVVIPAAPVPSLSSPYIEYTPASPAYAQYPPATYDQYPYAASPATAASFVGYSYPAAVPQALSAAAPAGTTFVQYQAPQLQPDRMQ

[7] = target: T9, PK05280.1 (Cannabis sativa) (UniProt A0A7J6GSE1); settings: 20 nM protein, 1.5 uM RNA pool; 20 mM HEPES pH 7.8, 70 mM KCl, 10 mM NaCl, 10% glycerol, 2 mM DTT, 0.1 ug/uL BSA; 30 min, 4 C; purified recombinant protein; residues 468-656; protein details: N-terminal GST (kept); only the motif is given
T9 sequence: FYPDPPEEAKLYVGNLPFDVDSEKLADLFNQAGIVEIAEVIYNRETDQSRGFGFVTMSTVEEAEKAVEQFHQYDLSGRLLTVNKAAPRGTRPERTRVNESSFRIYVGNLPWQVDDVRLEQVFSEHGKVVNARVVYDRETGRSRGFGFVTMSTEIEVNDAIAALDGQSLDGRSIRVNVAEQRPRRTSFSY

PPRC1 (Homo sapiens) = target: T10, PPRC1 (Homo sapiens) (UniProt Q5VV67); settings: 20 nM protein, 1.5 uM RNA pool; 20 mM HEPES pH 7.8, 70 mM KCl, 10 mM NaCl, 10% glycerol, 2 mM DTT, 0.1 ug/uL BSA; 30 min, 4 C; purified recombinant protein; residues 1495-1658; protein details: N-terminal GST (kept); only the motif is given; cited from earlier work
T10 sequence: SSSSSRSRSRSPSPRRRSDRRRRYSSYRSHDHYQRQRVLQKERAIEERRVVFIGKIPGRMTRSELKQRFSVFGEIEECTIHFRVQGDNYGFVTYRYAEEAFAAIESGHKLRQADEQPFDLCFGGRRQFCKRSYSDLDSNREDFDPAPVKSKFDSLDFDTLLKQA

[8] = target: T11, tra2b (Tetraodon nigroviridis) (UniProt H3C228); settings: 20 nM protein, 1.5 uM RNA pool; 20 mM HEPES pH 7.8, 70 mM KCl, 10 mM NaCl, 10% glycerol, 2 mM DTT, 0.1 ug/uL BSA; 30 min, 4 C; purified recombinant protein; protein details: N-terminal GST (kept); only the motif is given
T11 sequence: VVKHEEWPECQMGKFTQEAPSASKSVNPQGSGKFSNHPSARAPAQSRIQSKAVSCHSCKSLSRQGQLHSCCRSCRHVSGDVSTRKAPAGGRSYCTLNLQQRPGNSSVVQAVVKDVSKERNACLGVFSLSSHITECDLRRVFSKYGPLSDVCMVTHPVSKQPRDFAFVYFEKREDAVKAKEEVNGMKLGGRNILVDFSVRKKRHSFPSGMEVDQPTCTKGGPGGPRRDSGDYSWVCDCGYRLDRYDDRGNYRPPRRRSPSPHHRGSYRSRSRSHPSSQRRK

RBM34 (Homo sapiens) = target: T12, RBM34 (Homo sapiens) (UniProt P42696); settings: 20 nM protein, 1.5 uM RNA pool; 20 mM HEPES pH 7.8, 70 mM KCl, 10 mM NaCl, 10% glycerol, 2 mM DTT, 0.1 ug/uL BSA; 30 min, 4 C; purified recombinant protein; residues 137-407; protein details: N-terminal GST (kept); only the motif is given
T12 sequence: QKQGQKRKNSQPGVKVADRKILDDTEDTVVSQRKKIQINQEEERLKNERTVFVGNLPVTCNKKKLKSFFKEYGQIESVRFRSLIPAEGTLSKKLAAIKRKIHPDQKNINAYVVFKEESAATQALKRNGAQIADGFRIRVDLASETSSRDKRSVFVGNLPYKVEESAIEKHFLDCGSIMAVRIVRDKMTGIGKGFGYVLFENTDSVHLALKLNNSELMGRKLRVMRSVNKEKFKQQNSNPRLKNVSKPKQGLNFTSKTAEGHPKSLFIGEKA

In the case of AAACAA [RNAcompete motif RNCMPT00033], the binding signal (z-score (mean of top ten 7-mers)) (IGF2BP2 (Homo sapiens)) is given as 5.73.

With AACAAUAG [RNAcompete motif RNCMPT00787] the binding signal (z-score (mean of top ten 7-mers)) [1] was 5.31.

ACGAGGG [RNAcompete motif RNCMPT00838] showed a binding signal (z-score (mean of top ten 7-mers)) [2] of 5.93.

AGAUGAA [RNAcompete motif RNCMPT00366] gave a binding signal (z-score (mean of top ten 7-mers)) [3] of 5.75.

In the case of AUCUUG [RNAcompete motif RNCMPT00037], the binding signal (z-score (mean of top ten 7-mers)) (MATR3 (Homo sapiens)) is listed as 5.42.

Work on AUUUUC [RNAcompete motif RNCMPT00788] yielded a binding signal (z-score (mean of top ten 7-mers)) [4] of 5.47.

In the case of CCCCCCC [RNAcompete motif RNCMPT00044], the binding signal (z-score (mean of top ten 7-mers)) (PCBP2 (Homo sapiens)) is listed as 3.74.

In the case of CUACUA [RNAcompete motif RNCMPT00287], the binding signal (z-score (mean of top ten 7-mers)) [5] is listed as 5.22.

GACGA [RNAcompete motif RNCMPT00329] gave a binding signal (z-score (mean of top ten 7-mers)) [6] of 5.91.

In the case of GAGUGU [RNAcompete motif RNCMPT01687], the binding signal (z-score (mean of top ten 7-mers)) (RBM38 (Homo sapiens)) is reported as 5.16.

GAUACAA [RNAcompete motif RNCMPT00862] showed a binding signal (z-score (mean of top ten 7-mers)) [7] of 5.4.

For GCCCGCCG [RNAcompete motif RNCMPT00045], the binding signal (z-score (mean of top ten 7-mers)) (PPRC1 (Homo sapiens)) is listed as 5.

For UCUUCAG [RNAcompete motif RNCMPT01669], the binding signal (z-score (mean of top ten 7-mers)) [8] was 5.71.

Work on UUGAC [RNAcompete motif RNCMPT00819] yielded a binding signal (z-score (mean of top ten 7-mers)) (RBM34 (Homo sapiens)) of 5.79.

Whether high values mean tight binding is not given here for every scale. For some assays here: Tags and fusion partners may be left off the protein sequences shown.
